This passage reports binding results from paper doi:10.1101/2022.09.23.508845.

For experiment [1], the target named is HaloTag TELO2 (human). Briefly: FRET or BRET.
The target of experiment [2] is 3xFlag-TELO2 full length (human). Briefly: co-IP.

No constants are given. Whether binding was seen depends on the method and setting. Binding seen in cells or lysates may run through a third protein. Binding calls can cover weak binding; strength is not graded here.

B1: GNB1L (NanoBRET construct) (protein, UniProt Q9BYB4 1-327)
chain: MTAPCPPPPPDPQFVLRGTQSPVHALHFCEGAQAQGRPLLFSGSQSGLVHIWSLQTRRAVTTLDGHGGQCVTWLQTLPQGRQLLSQGRDLKLCLWDLAEGRSAVVDSVCLESVGFCRSSILAGGQPRWTLAVPGRGSDEVQILEMPSKTSVCALKPKADAKLGMPMCLRLWQADCSSRPLLLAGYEDGSVVLWDVSEQKVCSRIACHEEPVMDLDFDSQKARGISGSAGKALAVWSLDWQQALQVRGTHELTNPGIAEVTIRPDRKILATAGWDHRIRVFHWRTMQPLAVLAFHSAAVQCVAFTADGLLAAGSKDQRISLWSLYPRA
For the molecule B1, the binding entry in experiment [1] is on record as “binds”.

B2: GNB1L (endogenous) (protein, UniProt Q9BYB4 1-327)
chain: B1 chain
For the molecule B2, the binding result in experiment [2] is listed as “binds”.
